# Among all 330,000 compounds or so, about 7,700 (2.3%) were called active. Inconclusive results, whose numbers are uncertain, are shown with a selection of clear calls. The call rests on the fitted dose curve; in most records, active means well fitted inhibition curve with a large enough effect; inconclusive means small, poorly fitted or top-dose-only effect, or effect the other way; inactive means flat fitted curve, though single readings scatter. Potencies beside an inconclusive call are fits to weak or partial responses and may not hold up.
# Assay: qHTS screen for small molecules that inhibit ELG1-dependent DNA repair in human embryonic kidney (HEK293T) cells expressing luciferase-tagged ELG1; further: nearly all actives have a fitted effect of over 55% in size
# Conditions: HEK293T ELG1-luciferase reporter, luminescence, 16 h, DNA damage induced by 5-fluorouridine; activity change, negative = inhibition: at 46.1 µM (top of the series)
# Summary of the method: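 Reporter activity after DNA damage by 5-fluorouridine is monitored. Compound-treated cells incubate 16 hr at 37 °C, then ONE-Glo is added for 30 min before luminescence reading.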
# On the % scale 0 is the no-effect control and ±100 the full control effect; potency means the concentration at half of the fitted maximal effect.
SMILES,Potency,"activity change, negative = inhibition"
COc1cccc(NC(=O)CN(C)C(=O)c2cc(-c3ccc(F)cc3)nc3ccccc23)c1,"inconclusive: 18.3 µM [inhibitor, single point]",
O=C(CN1C(=O)/C(=C\C=C\c2ccccc2)SC1=S)Nc1ccc(F)cc1,"inconclusive: 29.1 µM [activator, single point]",
O=C(COc1cccc2c1CCN(Cc1ccc(Br)cc1)C2=O)N1CCOCC1,active: 7.3 µM,
CN(c1ccc(C(=O)N2CCc3ccccc3C2)cc1)S(C)(=O)=O,"inconclusive: 14.6 µM [activator, single point]",
S=C(NC1CCCC1)N1CCN(C/C=C/c2ccccc2)CC1,active: 18.3 µM,
CCNS(=O)(=O)c1ccc(NC(=O)Nc2ccc3c(c2)OCO3)cc1,,inactive: 17.7%
COc1cc(O)oc1C=Nc1ccc(C(F)(F)F)cc1,"inconclusive: 20.6 µM [activator, single point]",
Cc1c(C(=O)Nc2nccs2)oc2ccc(F)cc12,"inconclusive: 3.66 µM [activator, partial curve]",
O=C(Nc1nccs1)c1cc2c(s1)-c1ccccc1OC2,"inconclusive: 2.59 µM [activator, full curve]",
CN(C)c1ccc(C2C3CCCc4ccccc4C3=NN2C)cc1 (centres undefined),"inconclusive: 14.6 µM [activator, partial curve]",
C/C(=N/NC(=O)CN1CCN(Cc2ccccc2Cl)CC1)c1cccs1,"inconclusive: 23.1 µM [inhibitor, single point]",
COc1ccc(S(=O)(=O)NCCCCCC(=O)O)cc1C(=O)O,,inactive: -13.7%
Cn1c(=O)c2c(nc(NC3CCCCC3)n2CC(=O)C23CC4CC(CC(C4)C2)C3)n(C)c1=O,active: 7.31 µM,
COc1cc2c(cc1NC(=O)COCC(=O)O)oc1ccccc12,,inactive: 4.08%
COc1cc(C(=O)Nc2ccc3oc(-c4cccnc4)nc3c2)cc(OC)c1OC,active: 23.1 µM,
CCCCn1nc(NC(=O)COC)c2cc3ccc(C)cc3nc21,,inactive: -14.5%
Clc1ccc(-n2cccc2/C=N/n2cnnc2)cc1,,inactive: -5.31%
O=C(Nc1ncccn1)c1ccc(C(F)(F)F)cc1,"inconclusive: 18.4 µM [activator, partial curve]",
COc1cc2c(cc1OC)C1(Nc3c-2c(Cc2ccccc2)nn3-c2ccccc2)C(=O)Nc2ccccc21 (centres undefined),active: 13 µM,
Cc1cc(Cl)ccc1NC(=S)NCC(O)c1ccccc1 (centres undefined),,inactive: 24.6%
O=C(Nc1nc(-c2ccccc2)cs1)c1ccc(N2CCOCC2)c([N+](=O)[O-])c1,active: 3.66 µM,
CC[C@]12c3[nH]c4cc(-c5ccco5)ccc4c3CCN1C(=O)[C@@H](CC(=O)NCCCN(C)C)C[C@@H]2C(=O)N1CCN(C(=O)C2CC2)CC1,,inactive: 14.1%
Fc1ccccc1NC(=S)Nc1ccc(Br)cc1,,inactive: -5.59%

# Single records (already shown):
# O=C(COc1cccc2c1CCN(Cc1ccc(Br)cc1)C2=O)N1CCOCC1 in the list: Potency: active: 7.3 µM
# O=C(CN1C(=O)/C(=C\C=C\c2ccccc2)SC1=S)Nc1ccc(F)cc1 in the list: Potency: inconclusive: 29.1 µM [activator, single point]

# The list continues.

SMILES,Potency,"activity change, negative = inhibition"
O=c1[nH]c(CSc2nc(-c3ccc(F)cc3)cs2)nc2ccccc12,,inactive: 2%
O=C(NNC(=O)c1ccccc1C(F)(F)F)c1csc(N2CCOCC2)n1,,inactive: 2.3%
CCCCn1c(N)c(-c2nc3ccccc3o2)c2c([N+](=O)[O-])nn(CC)c(=O)c21,active: 2.06 µM,
O=C(Cn1c(/C=C/c2ccccc2)nc2ccccc21)Nc1ccc(F)cc1,"inconclusive: 9.2 µM [activator, partial curve]",
Cc1nc(SCC(=O)N(C)C2(C#N)CCCCC2)c2ccccc2n1,"inconclusive: 18.3 µM [inhibitor, single point]",
COc1cc(C(=O)Nc2ccc(Cl)c(C(F)(F)F)c2)cc(OC)c1OC,active: 5.17 µM,
COc1ccc(-n2c(SCC(=O)NCc3ccco3)nc3c([nH]c4ccccc43)c2=O)cc1,"inconclusive: 2.31 µM [inhibitor, partial curve]",
Cc1ccc(Oc2ncnc(N)c2[N+](=O)[O-])cc1C,,inactive: 12.4%
CCC(=O)Nc1ccc(C(=O)Nc2cccnc2)cc1,"inconclusive: 23.1 µM [activator, partial curve]",
c1ccc(CN2CCN(c3nc(NCc4ccco4)c4ccccc4n3)CC2)cc1,"inconclusive: 32.6 µM [inhibitor, single point]",
CCc1ccc(-c2cc(C)no2)cc1S(=O)(=O)N1CCN(c2cc(C)ccc2C)CC1,"inconclusive: 18.3 µM [inhibitor, single point]",
CCCCNC(=O)c1cc2n(n1)C(C(F)(F)F)CC(c1ccccc1)N2 (centres undefined),,inactive: -0.688%
COc1ccc(Nc2cc(C)nc(N3CCOCC3)n2)cc1,"inconclusive: 18.4 µM [activator, single point]",
O=C(CSc1nnc2ccccn12)NNC(=O)c1cccc(Cl)c1,"inconclusive: 18.3 µM [activator, partial curve, poor fit]",
COc1cc(OC)cc(C(=O)N[C@H](C(=O)OCC(=O)Nc2cccc(F)c2)C(C)C)c1,"inconclusive: 16.4 µM [inhibitor, partial curve]",
O=C(O)c1cccnc1SC1CC(=O)N(c2ccc(OC(F)F)cc2)C1=O (centres undefined),,inactive: 0.844%
NC(=O)C1CCN(C(=O)COCc2cc(-c3ccc4c(c3)OCO4)on2)CC1,"inconclusive: 20.6 µM [activator, partial curve]",
CC(=O)c1ccc(NC(=O)COc2ccc3c(c2)OCO3)cc1,"inconclusive: 20.6 µM [activator, single point]",
N#Cc1ccccc1COC(=O)c1ccc2c(c1)OCCO2,"inconclusive: 20.6 µM [activator, partial curve]",
CN(C)C(=O)c1ccc(Nc2nc(-c3cccs3)nc3ccccc23)cc1,"inconclusive: 18.3 µM [inhibitor, single point]",
COc1cccc(OCc2nc(-c3cccc([N+](=O)[O-])c3)no2)c1,"inconclusive: 29.1 µM [inhibitor, single point]",
COc1ccccc1NC(=O)CSc1n[nH]c(-c2ccccn2)n1,"inconclusive: 25.9 µM [inhibitor, partial curve, poor fit]",
O=C(Nc1ccc(S(=O)(=O)N2CCOCC2)cc1)c1ccc(Cl)cc1,"inconclusive: 23.1 µM [inhibitor, partial curve]",

SMILES,Potency,"activity change, negative = inhibition"
COc1ccc(C(=O)Nn2c(CC(C)C)nc3cc(OC)c(OC)cc3c2=O)c(OC)c1,"inconclusive: 20.6 µM [inhibitor, partial curve]",
COc1cccc(/C=N/NC(=O)CNC(=O)c2cccnc2)c1O,"inconclusive: 18.3 µM [inhibitor, single point]",
CC(=O)Oc1ccc(-c2cccc(C(=O)O)c2)cc1,"inconclusive: 29.1 µM [activator, single point]",
CCOC(=O)c1cc(-c2ccccc2)sc1NC(=O)CCN1C(=O)c2ccccc2C1=O,"inconclusive: 18.4 µM [inhibitor, single point]",
O=C(C1CCN(S(=O)(=O)c2ccc3ccccc3c2)CC1)N1CCN(c2ncccn2)CC1,"inconclusive: 25.9 µM [inhibitor, single point]",
Cc1ccc(NC2Nc3cc(C)nn3S2)c(C)c1 (centres undefined),"inconclusive: 20.6 µM [activator, partial curve]",
CC(=O)N(C(C)=O)n1c(C)nc2sc3c(c2c1=O)CCCC3,"inconclusive: 20.6 µM [activator, partial curve, poor fit]",
O=C(NCC1CCN(C(=O)c2ccc([N+](=O)[O-])cc2)CC1)c1ccc([N+](=O)[O-])cc1,"inconclusive: 29.1 µM [inhibitor, single point]",
Nc1nc2nc(-c3ccccc3)cc(C(F)(F)F)c2s1,"inconclusive: 29.1 µM [activator, partial curve, poor fit]",
Cc1cccc(C(=O)OCC(=O)Nc2nccs2)c1,"inconclusive: 20.6 µM [activator, single point]",
O=C1CC(/C=C/c2ccc([N+](=O)[O-])cc2)=Nc2ccccc2N1,"inconclusive: 32.6 µM [inhibitor, partial curve, poor fit]",
N=c1n(CC(=O)c2cccc([N+](=O)[O-])c2)c2ccccc2n1Cc1ccccc1,,inactive: -11.9%
c1ccc2oc(-c3ccc4nc[nH]c4c3)nc2c1,"inconclusive: 4.61 µM [activator, partial curve]",
CCOC(=O)c1sc(=NC(=O)c2cccc(Br)c2)n(C)c1C,"inconclusive: 2.91 µM [activator, full curve]",
COc1ccc(CN2CC(=O)N(c3ccc(C)cc3)C2=S)cc1OC,,inactive: -8.31%
CCc1ccccc1NC(=O)COc1ccc(C(=S)N2CCCC2)cc1,"inconclusive: 29.1 µM [inhibitor, single point]",
O=C(O)c1ccc(F)c(S(=O)(=O)Nc2ccccc2Cl)c1,"inconclusive: 23.1 µM [activator, single point]",
Cn1c(=O)n(CC(=O)O)c(=O)c2c1nc1n2CCCN1Cc1ccccc1,"inconclusive: 10 µM [inhibitor, partial curve, poor fit]",
CCC(C)Nc1ccc(NC(C)CC)cc1 (centres undefined),"inconclusive: 29.1 µM [inhibitor, single point]",
O=C(CCS(=O)(=O)c1ccc(F)cc1)Nc1nc(-c2ccccn2)cs1,"inconclusive: 18.3 µM [inhibitor, partial curve]",
COc1ccccc1-c1cc(C(=O)N/N=C/c2sccc2C)c2ccccc2n1,active: 11.6 µM,
CC(Sc1nc(-c2ccccc2)cs1)C(=O)Nc1ccc(Cl)cn1 (centres undefined),"inconclusive: 25.9 µM [inhibitor, single point]",
Cc1ccccc1-n1cnc2c(sc3nc(N4CCOCC4)c4c(c32)CCCC4)c1=O,"inconclusive: 20.6 µM [inhibitor, single point]",

# Reprinted from the entries so far, two compounds:
SMILES,Potency,"activity change, negative = inhibition"
Cn1c(=O)n(CC(=O)O)c(=O)c2c1nc1n2CCCN1Cc1ccccc1,"inconclusive: 10 µM [inhibitor, partial curve, poor fit]",
CCC(C)Nc1ccc(NC(C)CC)cc1 (centres undefined),"inconclusive: 29.1 µM [inhibitor, single point]",
